Percent effect of library compounds

Chains of the proteins cited; added tags and fusions are not shown. Residues count along the entry.
UniProt P9WPC5, whole entry: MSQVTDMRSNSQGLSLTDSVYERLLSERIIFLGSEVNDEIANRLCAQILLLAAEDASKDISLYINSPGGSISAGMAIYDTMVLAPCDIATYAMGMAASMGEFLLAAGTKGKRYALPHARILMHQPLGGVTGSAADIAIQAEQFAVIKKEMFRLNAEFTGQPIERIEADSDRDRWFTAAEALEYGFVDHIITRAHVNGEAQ
UniProt P9WPC3, whole entry partner: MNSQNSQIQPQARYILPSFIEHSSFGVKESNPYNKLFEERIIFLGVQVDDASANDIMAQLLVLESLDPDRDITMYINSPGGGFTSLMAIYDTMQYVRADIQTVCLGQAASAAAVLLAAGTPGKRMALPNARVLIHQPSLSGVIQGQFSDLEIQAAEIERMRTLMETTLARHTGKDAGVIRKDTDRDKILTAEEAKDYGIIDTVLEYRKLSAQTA
UniProt P9WNZ1, whole entry: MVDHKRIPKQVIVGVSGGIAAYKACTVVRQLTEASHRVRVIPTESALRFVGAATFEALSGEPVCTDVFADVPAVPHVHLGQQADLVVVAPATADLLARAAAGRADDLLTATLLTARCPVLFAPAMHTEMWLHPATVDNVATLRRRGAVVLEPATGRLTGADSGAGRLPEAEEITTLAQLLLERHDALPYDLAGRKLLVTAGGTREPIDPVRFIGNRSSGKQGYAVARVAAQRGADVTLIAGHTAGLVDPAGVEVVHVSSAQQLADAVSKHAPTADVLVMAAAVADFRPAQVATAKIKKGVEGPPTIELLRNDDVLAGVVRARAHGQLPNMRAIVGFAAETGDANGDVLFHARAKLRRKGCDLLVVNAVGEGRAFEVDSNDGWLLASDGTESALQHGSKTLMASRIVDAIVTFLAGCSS
UniProt A4I591, 1-473: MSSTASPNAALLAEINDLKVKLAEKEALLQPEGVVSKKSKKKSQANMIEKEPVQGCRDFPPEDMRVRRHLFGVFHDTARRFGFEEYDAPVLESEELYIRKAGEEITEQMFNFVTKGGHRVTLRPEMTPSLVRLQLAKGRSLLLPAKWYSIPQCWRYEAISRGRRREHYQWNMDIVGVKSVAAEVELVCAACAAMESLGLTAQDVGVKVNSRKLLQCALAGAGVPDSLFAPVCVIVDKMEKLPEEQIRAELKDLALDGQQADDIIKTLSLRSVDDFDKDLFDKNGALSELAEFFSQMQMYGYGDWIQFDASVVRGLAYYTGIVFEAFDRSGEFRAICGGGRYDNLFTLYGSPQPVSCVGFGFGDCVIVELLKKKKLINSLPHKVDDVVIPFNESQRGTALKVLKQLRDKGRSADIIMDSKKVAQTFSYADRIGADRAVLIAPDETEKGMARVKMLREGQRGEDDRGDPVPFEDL

The values are deposited in ChEMBL (CHEMBL3988442, “University of Dundee, Small-Polar-MMV Screening Library” (2021)).

Each number is a percent effect as filed.
How 0% and 100% were set is not recorded. Most values in the screen are low, and negative values occur.
This is an unselected part of the compounds tested.
Two or more numbers in one place are separate tests of the same structure; such repeats can differ widely.

ClpP1P2: 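Protease assay of ClpP1P2, read by the AMC dye that it sets free. Target: ClpP1P2, Mycobacterium tuberculosis (UniProt P9WPC5 and UniProt P9WPC3). Tested at 50 µM. Direction is inferred from only a few compounds that gave an IC50; most scored high, so higher reads as stronger inhibition. Most other retested compounds had strongly negative values. About 69,000 compounds were tested under these conditions; 0.015% (about 10) showed 50% or more at least once.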
CoaBC: 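Coenzyme A biosynthesis protein CoaBC, Mycobacterium tuberculosis (UniProt P9WNZ1). Enzyme assay of CoaBC with a phosphate dye (Biomol Green) read at 650 nm. Compounds at 30 µM. Direction is inferred from only a few compounds that gave an IC50; most scored high, so higher reads as stronger inhibition. Most strong results did not repeat in a second test. About 67,000 compounds were tested under these conditions; 0.06% (about 40) showed 50% or more at least once.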
Leishmania in macrophages: 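Cell assay of Leishmania donovani living inside macrophages; the read-out is not stated. Concentration: 30 µM. Direction is inferred from retests: higher values go with stronger inhibition. Size under these conditions: about 69,000 compounds, about 1,000 of them at 50% or above in at least one test.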
LiHisRS: 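Enzyme assay of histidyl-tRNA synthetase; the read-out is not stated. Target: Histidine-tRNA ligase, Leishmania infantum (UniProt A4I591). Compounds at 30 µM. Direction is inferred from retests: higher values go with stronger inhibition. The assay is labelled LdHisRS but filed under L. infantum. Of about 69,000 compounds tested this way, about 410 (0.6%) reached 50% or more in at least one test.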

With CCOc1cc(F)ccc1NC(=O)N(C(C)CS(C)(=O)=O)C1CC1 (stereo unspecified) the screen gave ClpP1P2: -1.688%; CoaBC: 11.2%; Leishmania in macrophages: 5.575%; LiHisRS: 13.16%.
With Cc1cnn(CC2CN(CC(=O)NCc3ccccn3)CCO2)c1 (stereo unspecified) the screen gave ClpP1P2: -5.676%; CoaBC: 7.692%; Leishmania in macrophages: -0.176%; LiHisRS: 17.57%.
With CC1c2ncc(Cn3cncn3)n2CCN1C1CCOCC1 (stereo unspecified) the screen gave ClpP1P2: 2.319%; CoaBC: 2.157%; LiHisRS: 15.09%.
With CCCc1nnc(NCCc2noc(C3CC3)n2)o1 the screen gave ClpP1P2: -8.892%; CoaBC: 0.7229%; Leishmania in macrophages: 18.11%; LiHisRS: 5.495%.
With CC(C)COC(C)C(=O)NCCNS(C)(=O)=O (stereo unspecified) the screen gave ClpP1P2: 11.89%; CoaBC: -1.446%; Leishmania in macrophages: 50.97%; LiHisRS: 18.68%.
With CNC(=O)CCOC(=O)c1cccc(-n2cccn2)c1 the screen gave ClpP1P2: -8.204%; CoaBC: 2.433%; Leishmania in macrophages: 23.47%; LiHisRS: 8.889%.
With N[C@H]1CN(C(=O)c2ccccc2OCCc2ccccc2)C[C@@H]1C1CC1 the screen gave ClpP1P2: -71.39%; CoaBC: 3.106%; Leishmania in macrophages: 6.953%; LiHisRS: 20.83%.
With Cc1ccccc1CC(=O)N1C[C@@H](O)[C@H](N2CCC(F)(F)CC2)C1 the screen gave ClpP1P2: 5.645%; CoaBC: 8.392%; Leishmania in macrophages: 24.99%; LiHisRS: 11.35%.
With O=S(=O)(c1ccc(F)cc1)N1CCCC1c1cc[nH]n1 (stereo unspecified) the screen gave ClpP1P2: -7.135%; CoaBC: 1.942%; Leishmania in macrophages: 10.3% & 3.433%; LiHisRS: 4.348%.
With O=C(C1CC1)N1CC[C@H](O)[C@@H]1Cc1ccccc1 the screen gave ClpP1P2: 6.129%; CoaBC: 3.869%; Leishmania in macrophages: 26.78%; LiHisRS: 2.439%.
With CN1CCC(Nc2ccc(F)cc2OCC(F)(F)F)C1=O (stereo unspecified) the screen gave ClpP1P2: -7.99%; CoaBC: -1.911%; Leishmania in macrophages: -1.342%; LiHisRS: 13.47%.
With COc1cccc(N2CCN(C(=O)C(O)c3cccc(Cl)c3)CC2=O)c1 (stereo unspecified) the screen gave ClpP1P2: 7.476%; CoaBC: -3.625%; Leishmania in macrophages: -6.282%; LiHisRS: 19.23%.
With CCS(=O)(=O)N1Cc2[nH]nc(COCc3cccnc3)c2C1.O=C(O)C(F)(F)F the screen gave Leishmania in macrophages: 3.037%.
With CCC1CN(C)c2ccccc2CN1C(=O)Nc1cccc(F)c1 (stereo unspecified) the screen gave ClpP1P2: -5.542%; CoaBC: -1.148%; Leishmania in macrophages: 7.061%; LiHisRS: 14.29%.
With O=C(CCNS(=O)(=O)c1ccc(F)c(F)c1)NCc1ccoc1 the screen gave ClpP1P2: 5.642%; CoaBC: 5.785%; Leishmania in macrophages: 24.13%; LiHisRS: 18.75%.
With Cc1ccccc1CS(=O)(=O)c1nnc(N2CCOCC2)s1 the screen gave ClpP1P2: -0.649%; CoaBC: 0.6098%; Leishmania in macrophages: 17.94%; LiHisRS: 17.58%.
With CN(Cc1cccc(C(N)=O)c1)c1ncc(C#N)cc1Cl the screen gave ClpP1P2: 1.145%; CoaBC: 3.891%; Leishmania in macrophages: 7.645%; LiHisRS: 4.505%.
With CC(CNCc1ccc(F)cc1)Oc1ccccn1 (stereo unspecified) the screen gave ClpP1P2: 5.399%; CoaBC: 4.798%; LiHisRS: 15.79%.
With CNC(=O)N1CCC(=Cc2ccccc2)CC1 the screen gave ClpP1P2: -1.772%; CoaBC: 7.018%; Leishmania in macrophages: 17.73%; LiHisRS: 13.33%.
With [H][C@@]12CCC(=O)N(CCN)[C@]1([H])CCN(Cc1ccc3occc3c1)C2 the screen gave Leishmania in macrophages: 14.82%.
With CC(C)Cn1ncc2cc(C(=O)N(C)CCc3ccccc3)cnc21 the screen gave ClpP1P2: -4.809%; CoaBC: -1.225%; Leishmania in macrophages: 0.8261%; LiHisRS: 24.44%.
With CC(NCC1(N(C)C)CCOCC1)c1ccc(SC(F)F)cc1 (stereo unspecified) the screen gave ClpP1P2: -10.74%; CoaBC: 4.639% & 21.7%; Leishmania in macrophages: 43.5%; LiHisRS: 10.34%.
With COCCCC(=O)N1CCC(Nc2cccnn2)CC1 the screen gave ClpP1P2: -10.24%; CoaBC: 3.106%; Leishmania in macrophages: -18.1%; LiHisRS: 3.509%.
With CN(CCNC(=O)c1cnc(-c2ccncc2)nc1)S(C)(=O)=O the screen gave ClpP1P2: -1.95%; CoaBC: 11.47%; Leishmania in macrophages: 3.978%; LiHisRS: 14.75%.
With CC(=O)N1CCCN(C(=O)CN(C)c2ccc(Cl)cn2)CC1 the screen gave ClpP1P2: -6.574%; CoaBC: -11.02%; Leishmania in macrophages: 13.56%; LiHisRS: 10.2%.
With CC(C1CC1)N(C)C(=O)c1ccc(-n2ncc(C#N)c2N)cc1 (stereo unspecified) the screen gave ClpP1P2: -5.656%; CoaBC: -9.383%; Leishmania in macrophages: 3.376%; LiHisRS: 15.38%.

Once more, the final 3:

- CN(CCNC(=O)c1cnc(-c2ccncc2)nc1)S(C)(=O)=O : ClpP1P2: -1.95%; CoaBC: 11.47%; Leishmania in macrophages: 3.978%; LiHisRS: 14.75%
- CC(=O)N1CCCN(C(=O)CN(C)c2ccc(Cl)cn2)CC1 : ClpP1P2: -6.574%; CoaBC: -11.02%; Leishmania in macrophages: 13.56%; LiHisRS: 10.2%
- CC(C1CC1)N(C)C(=O)c1ccc(-n2ncc(C#N)c2N)cc1 (stereo unspecified) : ClpP1P2: -5.656%; CoaBC: -9.383%; Leishmania in macrophages: 3.376%; LiHisRS: 15.38%